# PubChem BioAssay AID504467 (National Center for Advancing Translational Sciences (NCATS), 2011)
# Hit rate of the full screen: of about 330,000 compounds, about 7,700 (2.3%) were called active. The inconclusive results got no clear call from the source; some entries with a clear call stand among them for comparison. Calls come from the whole dose curve; as a rule, active = well fitted inhibition curve with a large enough effect; inconclusive = small, poorly fitted or top-dose-only effect, or effect the other way; inactive = flat fitted curve, though single readings scatter. Potencies beside an inconclusive call are fits to weak or partial responses and may not hold up.
# Experiment: qHTS screen for small molecules that inhibit ELG1-dependent DNA repair in human embryonic kidney (HEK293T) cells expressing luciferase-tagged ELG1; note: nearly all actives have a fitted effect of over 55% in size
# Settings: HEK293T ELG1-luciferase reporter, luminescence, 16 h, DNA damage induced by 5-fluorouridine; series mostly up to 46.1 µM
# Procedure, shortened: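 Reporter activity after DNA damage by 5-fluorouridine is monitored. Compound-treated cells incubate 16 hr at 37 °C, then ONE-Glo is added for 30 min before luminescence reading.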
# Potency is the fitted concentration of half-maximal effect.
row,SMILES,Potency
1,COc1ccc(Nc2nnc(SC(C(=O)Nc3ccc(OC)c(Cl)c3)c3ccccc3)s2)cc1 (stereo not drawn),"inconclusive: 20.6 µM [inhibitor, single point]"
2,COC(=O)C1CCN(C(=O)C2CCN(C(=O)[C@@H](NS(=O)(=O)c3ccc(C)cc3)C(C)C)CC2)CC1,inactive
3,Cc1nn(C)c(C)c1NC(=O)CCCSc1nc(-c2ccco2)cc(C(F)(F)F)n1,active: 25.9 µM
4,O=C(Nc1nnc(-c2ccccc2F)s1)Nc1ccccc1F,"inconclusive: 5.8 µM [activator, full curve]"
5,CCC(=O)Nc1c2c(nn1-c1ccc(C)cc1)CS(=O)(=O)C2,inactive
6,N/C(=N/OCc1cccc([N+](=O)[O-])c1)c1nonc1N,"inconclusive: 4.61 µM [activator, partial curve, poor fit]"
7,COC(=O)C1=CN(c2ccc(F)c(F)c2)C=C(C(=O)OC)C1c1ccc([N+](=O)[O-])cc1,"inconclusive: 20.6 µM [inhibitor, single point]"
8,Cc1cccc(NCc2ccc(N(C)C)cc2)n1,"inconclusive: 10 µM [activator, partial curve]"
9,O=C(CC1C(=O)NCCN1Cc1cccc(F)c1)NC1CCCCC1 (stereo not drawn),inactive
10,COc1cccc(NC(=O)CN(C)C(=O)c2ccc3[nH]c4c(c3c2)CC(C)CC4)c1 (stereo not drawn),inactive
11,CC(Oc1ccccc1)C(=O)Nc1nnc(S(=O)(=O)N2CCCCC2)s1 (stereo not drawn),inactive
12,Cc1ccc2cc(CCNC(=O)CC(C)(C)C)c(=O)[nH]c2c1C,"inconclusive: 23.1 µM [activator, partial curve, poor fit]"
13,N=C1CCCN1CC(=O)c1ccc(Br)cc1,"inconclusive: 13 µM [activator, partial curve]"
14,Cc1nc2ccccc2c2oc(C(=O)N3CCN(C4CCCCC4)CC3)cc12,active: 7.31 µM
15,CCN(C(=O)CSc1nc2cc(S(=O)(=O)N(CC)CC)ccc2n1CC)C1CCS(=O)(=O)C1 (stereo not drawn),"inconclusive: 25.9 µM [inhibitor, single point]"
16,CCCCN(C)CCNC(=O)c1cn(C)c(=O)c2c1c1ccccc1n2C,"inconclusive: 23.1 µM [activator, single point]"
17,CCN(CC)C(=S)SSC(=S)N(CC)CC,"inconclusive: 29.1 µM [inhibitor, single point]"
18,Cc1cc(NC(=O)C2COc3ccccc3O2)no1 (stereo not drawn),"inconclusive: 20.6 µM [activator, partial curve]"
19,Cc1ccc(Nc2ncccc2C(N)=O)cc1[N+](=O)[O-],"inconclusive: 16.4 µM [activator, partial curve]"
20,O=C(Cc1cccs1)N/N=C/C=C\c1ccco1,"inconclusive: 20.6 µM [activator, partial curve]"
21,C/C(=N\NC(=S)Nc1c(C)cccc1C)c1ccc(OC(F)F)cc1,"inconclusive: 29.1 µM [inhibitor, partial curve]"
22,CC(=O)Nc1ccccc1OCC(O)CS(=O)(=O)c1ccc(C(F)(F)F)cn1 (stereo not drawn),"inconclusive: 14.6 µM [inhibitor, partial curve, poor fit]"
23,CC(C)(C)c1ccc(NC(=O)COC(=O)C2(C)CC2(Cl)Cl)cc1 (stereo not drawn),"inconclusive: 29.1 µM [activator, single point]"

row,SMILES,Potency
1,CCCN1CCC(=O)N([C@H](CO)Cc2ccccc2)CC1,"inconclusive: 0.184 µM [inhibitor, full curve]"
2,O=c1[nH]c(C2CCCN(S(=O)(=O)c3ccc(F)cc3)C2)nc2c1nnn2Cc1ccccc1 (stereo not drawn),"inconclusive: 29.1 µM [inhibitor, single point]"
3,CC1c2cc3c(cc2CCN1C(=O)c1cccc(Cl)c1)OCCCO3 (stereo not drawn),"inconclusive: 14.6 µM [inhibitor, partial curve]"
4,O=C(c1cc2cc3ccc(Cl)cc3nc2o1)N1CCCCCC1,"inconclusive: 8.2 µM [activator, partial curve]"
5,CCCCC(CC)Cn1c(O)c(/C=C2\C=NN=C2c2ccccc2)sc1=S (stereo not drawn),"inconclusive: 10.3 µM [activator, partial curve, poor fit]"
6,COc1cc(OC)cc(-n2nc(C(=O)N3CC(C)CC(C)C3)c3ccccc3c2=O)c1 (stereo not drawn),active: 20.6 µM
7,Cc1ccc(-n2c(C)cc(C(=O)COC(=O)c3ccc[nH]c3=O)c2C)cc1C,"inconclusive: 14.6 µM [activator, partial curve]"
8,N#Cc1cccc(NC(=O)N2CCC(c3nc4c(nnn4Cc4cccc(Cl)c4)c(=O)[nH]3)CC2)c1,"inconclusive: 23.1 µM [inhibitor, partial curve]"
9,Cc1ccc(S(=O)(=O)c2cc3c(=O)n4cccc(C)c4nc3n(C3CCCCC3)c2=N)cc1,inactive
10,COc1ccccc1-[n+]1c(C)cc(/C=C2\Sc3ccccc3N2C)cc1C,"inconclusive: 1.03 µM [inhibitor, partial curve, poor fit]"
11,Cc1cccc(CC2CC(=O)N(c3ccccc3)C2=O)c1 (stereo not drawn),"inconclusive: 0.366 µM [activator, partial curve, poor fit]"
12,COC(=O)c1cccc(NC(=O)Cc2coc3cc(OC)ccc23)c1,"inconclusive: 16.4 µM [inhibitor, single point]"
13,Cc1nnc(NC(=O)c2nc(S(=O)(=O)Cc3ccccc3)ncc2Cl)s1,"inconclusive: 23.1 µM [inhibitor, partial curve]"
14,CN(C)C(C(=O)NC1CCCCC1)c1ccc(Cl)cc1 (stereo not drawn),inactive
15,Nc1sc(-c2ccccc2)c(Cc2ccccc2)c1C(=O)O,inactive
16,Cc1nc(Nc2ccccc2)sc1C(=O)c1ccccc1,"inconclusive: 6.51 µM [activator, single point]"
17,Cc1ccc(OCC(=O)Nc2ccc3c(c2)nc(CCN2CCOCC2)n3C)cc1,"inconclusive: 20.6 µM [inhibitor, partial curve, poor fit]"
18,O=C(NCCO)c1cc2c([nH]c3ccccc32)c(-c2ccccc2)n1,"inconclusive: 29.1 µM [inhibitor, single point]"
19,COc1ccc(/C=C2\NC(=S)N(CC3CCCO3)C2=O)c(OC)c1C (stereo not drawn),"inconclusive: 29.1 µM [inhibitor, single point]"
20,N#C/C(=C\c1ccc(-c2cccc([N+](=O)[O-])c2)o1)C(=O)NCCN1CCOCC1,"inconclusive: 25.9 µM [inhibitor, single point]"
21,CCOC(=O)Cc1cc(=O)n2[nH]cc(-c3ccc(Cl)cc3)c2n1,"inconclusive: 25.9 µM [inhibitor, single point]"
22,Cc1coc(C)c1C(=O)CC1(O)C(=O)N(CCc2ccccc2)c2ccccc21 (stereo not drawn),"inconclusive: 4.61 µM [inhibitor, single point]"
23,Cc1ccc(S(=O)(=O)N=C2SCCCS2)cc1,"inconclusive: 29.1 µM [activator, partial curve, poor fit]"

# 4 of the compounds above, with bars between the fields.
row | SMILES | Potency
7 | Cc1ccc(-n2c(C)cc(C(=O)COC(=O)c3ccc[nH]c3=O)c2C)cc1C | inconclusive: 14.6 µM [activator, partial curve]
8 | N#Cc1cccc(NC(=O)N2CCC(c3nc4c(nnn4Cc4cccc(Cl)c4)c(=O)[nH]3)CC2)c1 | inconclusive: 23.1 µM [inhibitor, partial curve]
9 | Cc1ccc(S(=O)(=O)c2cc3c(=O)n4cccc(C)c4nc3n(C3CCCCC3)c2=N)cc1 | inactive
10 | COc1ccccc1-[n+]1c(C)cc(/C=C2\Sc3ccccc3N2C)cc1C | inconclusive: 1.03 µM [inhibitor, partial curve, poor fit]

# Next part.

row,SMILES,Potency
1,C/C(=N/NC(=O)c1ccncc1)c1c[nH]c2ccccc12,"inconclusive: 29.1 µM [activator, single point]"
2,COC(=O)[C@@]12CCCCN1[C@H](c1ccc(SC3CCCCC3)cc1)[C@H]1C(=O)N(C)C(=O)[C@H]12,inactive
3,N#Cc1c(N)nc2c3c(sc(=N)c2c1N)NC(=O)CC3c1ccccc1 (stereo not drawn),inactive
4,COc1nc(-c2cccs2)cc(-c2ccc(C)cc2)c1C#N,inactive
5,Cc1cccn2cc(-c3ccc(NC(=O)Cc4ccccc4)cc3)nc12,inactive
6,COC(=O)NNC(=O)c1ccccc1OC,inactive
7,O=C(c1cc(COc2cccc(C(F)(F)F)c2)on1)N1CCC(c2ccncc2)CC1,inactive
8,COc1cccc(-c2nn(C)c3sc(C(=O)NCc4ccc5c(c4)OCO5)cc23)c1,"inconclusive: 20.6 µM [inhibitor, single point]"
9,CCCC(=O)c1c(C)c2ccccc2n1C,"inconclusive: 11.2 µM [activator, partial curve, poor fit]"
10,C=CCNC(=S)N1CCC(C(=O)c2ccc(F)cc2)CC1,"inconclusive: 29.1 µM [inhibitor, partial curve, poor fit]"
11,CCCOc1cccc(C(=O)Nc2ccc(Br)cc2F)c1,"inconclusive: 14.6 µM [activator, partial curve]"
12,COc1cccc(-n2c(N)cc(=O)nc2SCC(=O)N2CCN(c3ccccc3)CC2)c1,inactive
13,Cc1cc2nc3ccc(=[N+](C)C)cc-3sc2cc1N,active: 0.651 µM
14,Cc1nn(C)c(C)c1NC(=O)CCl,"inconclusive: 29.1 µM [activator, single point]"
15,O=C(N/N=C/c1cccc(O)c1)c1ccc(NC(=O)C2CCCCC2)cc1,inactive
16,COc1ccccc1S(=O)(=O)Cc1ccc(C(=O)N2CCN(c3ccc(C)cc3)C(C)C2)o1 (stereo not drawn),active: 20.6 µM
17,COc1ccccc1S(=O)(=O)Cc1ccc(C(=O)NCc2ccc3c(c2)OCO3)o1,"inconclusive: 18.4 µM [inhibitor, partial curve]"
18,O=C(CCc1ccccc1Cl)Nc1cc2c(cc1C(=O)O)OCCCO2,"inconclusive: 35.5 µM [activator, single point]"
19,CN(CC(=O)NC1CC1)S(=O)(=O)c1cc(Cl)ccc1Cl,inactive
20,O=C(Nc1cccc(N2C(=O)C=CC2=O)c1)c1cccs1,"inconclusive: 8.2 µM [inhibitor, single point]"
21,COc1ccc(N2CCN(C(c3cc4cc(C)ccc4[nH]c3=O)c3nnnn3Cc3ccccc3)CC2)cc1 (stereo not drawn),"inconclusive: 29.1 µM [inhibitor, single point]"
22,CCOc1ccc(CCNC(=O)CCc2nnc3ccc(N4CCCC4)nn23)cc1OCC,"inconclusive: 14.6 µM [inhibitor, partial curve, poor fit]"
